Results are given in words; binding and its absence hold for the method and conditions named. Binding seen in cells or lysates may run through a third protein. Some results given as binding are weak or reduced against the parent protein; the word gives no strength. For part of these data: Tags and fused reporters may be left off the sequences shown.
What was measured:
GFP-SEPT12S198A (human) = target: T1, GFP-SEPT12S198A (human) (UniProt Q8IYM1); experiment: co-IP; NT2/D1 cells co-transfected with Myc-SEPT6, FLAG-SEPT7 and a GFP-SEPT12 plasmid; lysates immunoprecipitated with anti-GFP on Dynabeads protein G, 4°C overnight; washed with 100 mM Tris, 150 mM NaCl, 2 mM EDTA, 0.5% Tween-20, 0.01% NP-40; blots with anti-SEPT2, anti-Myc, anti-FLAG, anti-GFP
T1 sequence: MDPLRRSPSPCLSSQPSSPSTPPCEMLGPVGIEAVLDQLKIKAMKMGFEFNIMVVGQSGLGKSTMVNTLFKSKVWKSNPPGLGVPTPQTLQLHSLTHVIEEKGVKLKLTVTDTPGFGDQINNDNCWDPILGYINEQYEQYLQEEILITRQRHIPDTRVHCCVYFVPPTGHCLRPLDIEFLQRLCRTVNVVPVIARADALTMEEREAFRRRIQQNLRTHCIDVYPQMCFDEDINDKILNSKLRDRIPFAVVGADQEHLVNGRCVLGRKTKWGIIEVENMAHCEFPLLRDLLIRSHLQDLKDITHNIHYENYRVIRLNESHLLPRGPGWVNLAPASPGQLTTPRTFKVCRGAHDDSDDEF

GFP-SEPT12WT (human) [1] = target: T2, GFP-SEPT12WT (human) (UniProt Q8IYM1); experiment: as above
T2 sequence: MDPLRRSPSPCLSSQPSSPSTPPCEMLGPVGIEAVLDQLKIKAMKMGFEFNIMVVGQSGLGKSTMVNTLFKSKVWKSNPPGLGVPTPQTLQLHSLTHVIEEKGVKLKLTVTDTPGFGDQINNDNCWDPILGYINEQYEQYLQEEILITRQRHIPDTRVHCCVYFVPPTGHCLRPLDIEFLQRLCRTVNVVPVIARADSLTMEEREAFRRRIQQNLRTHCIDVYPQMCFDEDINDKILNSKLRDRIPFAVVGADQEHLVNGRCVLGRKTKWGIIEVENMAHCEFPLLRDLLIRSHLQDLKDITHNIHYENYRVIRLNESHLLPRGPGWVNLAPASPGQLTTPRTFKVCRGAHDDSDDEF

GFP-SEPT12WT (human) [2] = target: T2, GFP-SEPT12WT (human); experiment: co-IP; NT2/D1 cells co-transfected with HA-SEPT4, Myc-SEPT6, FLAG-SEPT7 and a GFP-SEPT12 plasmid; lysates immunoprecipitated with anti-GFP; blots with anti-HA, anti-Myc, anti-FLAG, anti-GFP
[3] = target: T3, His-tagged SEPT7 recombinant protein (UniProt Q16181); experiment: pull-down; 5 μg His-SEPT7 on 30 μl Ni-NTA beads, 5 mM imidazole, incubated with testicular lysate of WT or SEPT12^S196E/S196E mice overnight at 4°C; washed three times; blots for SEPT12, SEPT2, SEPT6 and His; only the target purified
T3 sequence: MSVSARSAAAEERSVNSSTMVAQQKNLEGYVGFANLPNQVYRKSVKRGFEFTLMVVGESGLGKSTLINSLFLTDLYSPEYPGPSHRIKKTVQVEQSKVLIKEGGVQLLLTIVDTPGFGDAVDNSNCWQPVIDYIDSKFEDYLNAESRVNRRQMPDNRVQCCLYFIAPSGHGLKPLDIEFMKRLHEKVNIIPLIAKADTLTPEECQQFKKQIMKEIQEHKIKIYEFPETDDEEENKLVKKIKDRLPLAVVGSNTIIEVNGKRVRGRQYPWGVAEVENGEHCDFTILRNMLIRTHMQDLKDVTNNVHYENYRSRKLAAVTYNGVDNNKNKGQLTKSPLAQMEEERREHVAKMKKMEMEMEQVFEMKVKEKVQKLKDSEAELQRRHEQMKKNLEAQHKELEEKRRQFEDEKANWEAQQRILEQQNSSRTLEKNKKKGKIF

[4] = target: T4, SEPT2 (endogenous, mouse testis) (mouse (endogenous in testis)), P42208; experiment: co-IP; testicular lysates of WT and SEPT12 KI mice immunoprecipitated with anti-SEPT2; blots with anti-SEPT2, anti-SEPT6, anti-SEPT7; conditions: remark: other sources report otherwise
T4 chain: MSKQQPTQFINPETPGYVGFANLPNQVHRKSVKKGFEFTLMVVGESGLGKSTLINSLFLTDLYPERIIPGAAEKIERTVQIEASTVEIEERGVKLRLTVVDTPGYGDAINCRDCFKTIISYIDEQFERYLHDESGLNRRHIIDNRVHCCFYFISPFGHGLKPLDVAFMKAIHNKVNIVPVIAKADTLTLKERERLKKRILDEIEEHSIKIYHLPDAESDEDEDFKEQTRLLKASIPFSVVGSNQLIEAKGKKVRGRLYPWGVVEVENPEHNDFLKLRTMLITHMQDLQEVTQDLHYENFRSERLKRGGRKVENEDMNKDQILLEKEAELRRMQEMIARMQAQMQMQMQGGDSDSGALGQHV

[5] = target: T5, SEPT2 (endogenous, mouse testis) (mouse (endogenous in testis)) (UniProt P42208); experiment: as above
T5 sequence: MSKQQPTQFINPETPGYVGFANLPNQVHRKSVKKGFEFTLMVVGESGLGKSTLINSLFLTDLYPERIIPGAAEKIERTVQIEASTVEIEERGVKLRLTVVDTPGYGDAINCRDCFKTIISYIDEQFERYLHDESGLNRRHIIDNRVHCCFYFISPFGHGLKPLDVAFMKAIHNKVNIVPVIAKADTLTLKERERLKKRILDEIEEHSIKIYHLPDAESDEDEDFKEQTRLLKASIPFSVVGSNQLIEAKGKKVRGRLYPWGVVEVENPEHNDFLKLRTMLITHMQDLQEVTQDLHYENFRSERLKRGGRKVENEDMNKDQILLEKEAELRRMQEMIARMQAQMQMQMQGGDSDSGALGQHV

| binding (GFP-SEPT12S198A (human)) | binding (GFP-SEPT12WT (human) [1]) | other results | Binder |
| --- | --- | --- | --- |
| binds | binds |  | SEPT2 (endogenous, NT2/D1 cells) (protein, UniProt Q15019-1 1-361) MSKQQPTQFINPETPGYVGFANLPNQVHRKSVKKGFEFTLMVVGESGLGKSTLINSLFLTDLYPERVIPGAAEKIERTVQIEASTVEIEERGVKLRLTVVDTPGYGDAINCRDCFKTIISYIDEQFERYLHDESGLNRRHIIDNRVHCCFYFISPFGHGLKPLDVAFMKAIHNKVNIVPVIAKADTLTLKERERLKKRILDEIEEHNIKIYHLPDAESDEDEDFKEQTRLLKASIPFSVVGSNQLIEAKGKKVRGRLYPWGVVEVENPEHNDFLKLRTMLITHMQDLQEVTQDLHYENFRSERLKRGGRKVENEDMNKDQILLEKEAELRRMQEMIARMQAQMQMQMQGGDGDGGALGHHV |
| binds | binds | binding (GFP-SEPT12WT (human) [2]): binds | Myc-SEPT6 (protein, UniProt Q14141 1-434) MAATDIARQVGEGCRTVPLAGHVGFDSLPDQLVNKSVSQGFCFNILCVGETGLGKSTLMDTLFNTKFEGEPATHTQPGVQLQSNTYDLQESNVRLKLTIVSTVGFGDQINKEDSYKPIVEFIDAQFEAYLQEELKIRRVLHTYHDSRIHVCLYFIAPTGHSLKSLDLVTMKKLDSKVNIIPIIAKADAISKSELTKFKIKITSELVSNGVQIYQFPTDDESVAEINGTMNAHLPFAVIGSTEELKIGNKMMRARQYPWGTVQVENEAHCDFVKLREMLIRVNMEDLREQTHTRHYELYRRCKLEEMGFKDTDPDSKPFSLQETYEAKRNEFLGELQKKEEEMRQMFVQRVKEKEAELKEAEKELHEKFDRLKKLHQDEKKKLEDKKKSLDDEVNAFKQRKTAAELLQSQGSQAGGSQTLKRDKEKKNNPWLCTE |
| binds | binds | binding (GFP-SEPT12WT (human) [2]): binds | FLAG-SEPT7 (protein, UniProt Q16181 1-437) MSVSARSAAAEERSVNSSTMVAQQKNLEGYVGFANLPNQVYRKSVKRGFEFTLMVVGESGLGKSTLINSLFLTDLYSPEYPGPSHRIKKTVQVEQSKVLIKEGGVQLLLTIVDTPGFGDAVDNSNCWQPVIDYIDSKFEDYLNAESRVNRRQMPDNRVQCCLYFIAPSGHGLKPLDIEFMKRLHEKVNIIPLIAKADTLTPEECQQFKKQIMKEIQEHKIKIYEFPETDDEEENKLVKKIKDRLPLAVVGSNTIIEVNGKRVRGRQYPWGVAEVENGEHCDFTILRNMLIRTHMQDLKDVTNNVHYENYRSRKLAAVTYNGVDNNKNKGQLTKSPLAQMEEERREHVAKMKKMEMEMEQVFEMKVKEKVQKLKDSEAELQRRHEQMKKNLEAQHKELEEKRRQFEDEKANWEAQQRILEQQNSSRTLEKNKKKGKIF |
|  |  | binding [3]: binds | SEPT2 (endogenous, mouse testis) (protein, UniProt P42208 1-361) MSKQQPTQFINPETPGYVGFANLPNQVHRKSVKKGFEFTLMVVGESGLGKSTLINSLFLTDLYPERIIPGAAEKIERTVQIEASTVEIEERGVKLRLTVVDTPGYGDAINCRDCFKTIISYIDEQFERYLHDESGLNRRHIIDNRVHCCFYFISPFGHGLKPLDVAFMKAIHNKVNIVPVIAKADTLTLKERERLKKRILDEIEEHSIKIYHLPDAESDEDEDFKEQTRLLKASIPFSVVGSNQLIEAKGKKVRGRLYPWGVVEVENPEHNDFLKLRTMLITHMQDLQEVTQDLHYENFRSERLKRGGRKVENEDMNKDQILLEKEAELRRMQEMIARMQAQMQMQMQGGDSDSGALGQHV |
|  |  | binding [3]: binds | SEPT6 (endogenous, mouse testis) (protein, UniProt Q9R1T4 1-434) MAAADIARQVGEDCRTVPLAGHVGFDSLPDQLVNKSVSQGFCFNILCVGETGLGKSTLMDTLFNTKFEGEPATHTQPGVQLQSNTYDLQESNVGLKLTIVSTVGFGDQINKEDSYKPIVEFIDAQFEAYLQEELKIRRVLHSYHDSRIHVCLYFIAPTGHSLKSLDLVTMKKLDSKVNIIPVIAKSDAISKSELAKFKIKITSELVSNGVQIYQFPTDDESVSEINGTMNAHLPFAVVGSTEEVKIGNKMMRARQYPWGTVQVENEAHCDFVKLREMLIRVNMEDLREQTHARHYELYRRCKLEEMGFKDTDPDSKPFSLQETYEAKRNEFLGELQKKEEEMRQMFVQRVKEKEAELKEAEKELHEKFDRLKKLHQEEKKKLEDKKKCLDEEMNAFKQRKAAAELLQSQGSQAGGSQTLKRDKEKKNNPWLCIE |
|  |  | binding [4]: binds | SEPT6 (endogenous, mouse testis), Q9R1T4 1-434 (protein) MAAADIARQVGEDCRTVPLAGHVGFDSLPDQLVNKSVSQGFCFNILCVGETGLGKSTLMDTLFNTKFEGEPATHTQPGVQLQSNTYDLQESNVGLKLTIVSTVGFGDQINKEDSYKPIVEFIDAQFEAYLQEELKIRRVLHSYHDSRIHVCLYFIAPTGHSLKSLDLVTMKKLDSKVNIIPVIAKSDAISKSELAKFKIKITSELVSNGVQIYQFPTDDESVSEINGTMNAHLPFAVVGSTEEVKIGNKMMRARQYPWGTVQVENEAHCDFVKLREMLIRVNMEDLREQTHARHYELYRRCKLEEMGFKDTDPDSKPFSLQETYEAKRNEFLGELQKKEEEMRQMFVQRVKEKEAELKEAEKELHEKFDRLKKLHQEEKKKLEDKKKCLDEEMNAFKQRKAAAELLQSQGSQAGGSQTLKRDKEKKNNPWLCIE |
|  |  | binding [5]: binds | SEPT7 (endogenous, mouse testis) (protein, UniProt O55131 1-436) MSVSARSAAAEERSVNCGTMAQPKNLEGYVGFANLPNQVYRKSVKRGFEFTLMVVGESGLGKSTLINSLFLTDLYSPEYPGPSHRIKKTVQVEQSKVLIKEGGVQLLLTIVDTPGFGDAVDNSNCWQPVIDYIDSKFEDYLNAESRVNRRQMPDNRVQCCLYFIAPSGHGLKPLDIEFMKRLHEKVNIIPLIAKADTLTPEECQQFKKQIMKEIQEHKIKIYEFPETDDEEENKLVKKIKDRLPLAVVGSNTIIEVNGKRVRGRQYPWGVAEVENGEHCDFTILRNMLIRTHMQDLKDVTNNVHYENYRSRKLAAVTYNGVDNNKNKGQLTKSPLAQMEEERREHVAKMKKMEMEMEQVFEMKVKEKVQKLKDSEAELQRRHEQMKKNLEAQHKELEEKRRQFEEEKANWEAQQRILEQQNSSRTLEKNKKKGKIF |

From article PMC5386304
